Data set [1] can be described thus: Electrowetting test cell: responsiveness and back flow of dye ink on application of voltage. The following applies: for Back flow ratio [%]: after 5 seconds in the voltage on state. On the procedure:
(§1) To a normal decane solution, which was obtained by bubbling argon gas into normal decane (n-decane) such that the content of dissolved oxygen was 10 ppm or less, the exemplary compounds 5, 15, or 23 was added such that the dye concentration was 40% by mass or 10% by mass, as shown in Table 2 and Table 3 below. In this way, the dye inks used as oils were prepared.
(§2) On a surface of the ITO film of a glass substrate (10 mm×10 mm) equipped with an indium tin oxide (ITO) film with a thickness of 100 nm as a transparent electrode, a fluorine-containing polymer (trade name: CYTOP, manufactured by Asahi Glass Co., Ltd., model number: CTL-809M) was coated such that the thickness was 600 nm, thereby forming a fluorine-containing polymer layer as a hydrophobic insulating film. Subsequently, on this fluorine-containing polymer layer, a frame-shaped silicone rubber wall which had been prepared by cutting out a tetrahedron having a size of 8 mm×8 mm×50 μm from the middle of a silicone rubber having a size of 1 cm×1 cm (a sealant having a thickness of 50 μm; SILI-US (trade name), manufactured by Fuso Rubber Co., Ltd.) was placed to form a display member. Into the region enclosed by this silicone rubber wall, the dye ink obtained as described above was injected such that the thickness became 4 μm. On the dye ink that had been injected, ethylene glycol was injected such that the thickness became 46 μm. On this assembly, a glass substrate equipped with an ITO film was further placed such that the ITO film faced the dye ink or the electrolyte aqueous solution, and was fixed.
To each of the ITO films (transparent electrodes) of the two glass substrates each equipped with an ITO film, a DC voltage of 100 V was applied (a minus voltage was applied to the ITO electrode on the side having thereon the fluorine-containing polymer (hydrophobic insulating film)) by using a signal generator, and the display cell (display cell 30 in FIG. 2) was observed. As a result, it was confirmed that the dye ink had moved toward one direction on the surface of the fluorine-containing polymer layer, and the area of the dye ink covering the fluorine-containing polymer layer was reduced. The responsiveness of the dye ink in this process, and the degree of the back flow phenomenon, when kept in the voltage on state as it was, were evaluated.
The reduction of the area by application of a voltage was evaluated based on the area shrinkage factor [%] calculated according to the following Equation (1), and the back flow phenomenon was evaluated based on the back flow ratio [%] calculated according to the following Equation (2). a) Response time [msec]=Time needed to reach the most shrink state from the initiation of application, when the application of a voltage is initiated from the voltage non-applying state b) Area shrinkage factor [%]=(Area of the dye ink when the dye ink shrinks at the most)/(Area of the dye ink before application of voltage)×100 Equation (1) c) Back flow ratio [%]=(Area of the dye ink after 5 seconds have past in the voltage on state)/(Area of the dye ink when the dye ink shrinks at the most)×100 Equation (2)

Data set [2] in a line: OD (image density) of dye ink in electrowetting test cell, spectroradiometer. Particulars: at maximum absorption wavelength, per 1 μm-thickness of the oil layer. The protocol:
as §1
as §2, with “Into the region enclosed by this silicone rubber wall, the dye ink obtained as described above was injected such that the thickness became 4 μm. On the dye ink that had been injected, ethylene glycol was injected such that the thickness became 46 μm. On this assembly, a glass substrate equipped with an ITO film was further placed such that the ITO film faced the dye ink or the electrolyte aqueous solution, and was fixed.” left out
Further, regarding the OD (image density), the OD value at the maximum absorption wavelength of the dye was measured using a spectroradiometer (trade name: SR-3, manufactured by TOPCON CORPORATION) and was evaluated. […]

For the compound `CCCCCCC(Oc1ccc(C(C)(C)CC)cc1C(C)(C)CC)C(=O)NCC(C)c1nc2/c(=C\c3c(C)nn4nc(C(C)CNC(=O)C(CCCCCC)Oc5ccc(C(C)(C)CC)cc5C(C)(C)CC)[nH]c34)c(C)nn2n1` (centres unmarked) [Exemplary compound 5], in data set [1] (Dye density: 10% by mass in n-decane, DC voltage of 100 V), the “Response time” value was below 200 ms. For the same compound, the “Area shrinkage [%]” value in data set [1] (Dye density: 10% by mass in n-decane, DC voltage of 100 V, 100% = not shrunk) was 20%. The “Back flow ratio [%]” value in data set [1] (Dye density: 10% by mass in n-decane) is reported as 120%; in data set [1] (Dye density: 40% by mass in n-decane) it was 110%. Also, the “Response time [mSec]” value in data set [1] (Dye density: 40% by mass in n-decane, DC voltage of 100 V) was 200~1000 mSec. The “Area shrinkage factor [%]” value in data set [1] (Dye density: 40% by mass in n-decane, DC voltage of 100 V, 100% = not shrunk) is recorded as 28%. Also, the OD in data set [2] (Dye density: 10% by mass) is recorded as 0.53; in data set [2] (Dye density: 40% by mass), 2.1.

(Values after patent US9335538B2, “Electrowetting display device and dye composition for electrowetting display” (FUJIFILM CORPORATION, priority 2012, dated 2016).)
